Assay results published in paper PMC7293730.
Results are given in words; binding and its absence hold for the method and conditions named. In cells and extracts the contact can be indirect. A yes stands for co-enrichment or nearness to the bait. Other partners may have been found. Sequences can lack the tags named with a protein.

Biological target: T1, Helicobacter pylori adhesin HpaA (neuraminyllactose-binding hemagglutinin), recombinant, 6x His tagged (Helicobacter pylori (strain ATCC 26695)) (UniProt P55969)
T1 sequence: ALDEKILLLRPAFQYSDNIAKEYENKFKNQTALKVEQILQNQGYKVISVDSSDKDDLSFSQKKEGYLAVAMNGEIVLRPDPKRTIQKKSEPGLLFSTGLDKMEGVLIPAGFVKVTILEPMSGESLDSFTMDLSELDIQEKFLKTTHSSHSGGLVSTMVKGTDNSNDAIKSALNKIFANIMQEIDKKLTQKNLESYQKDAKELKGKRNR
Assay: affinity purification with mass spectrometry; only the target purified

B1: Cleavage stimulation factor subunit 2 tau variant (protein, UniProt Q9H0L4 1-616)
chain: MSSLAVRDPAMDRSLRSVFVGNIPYEATEEQLKDIFSEVGSVVSFRLVYDRETGKPKGYGFCEYQDQETALSAMRNLNGREFSGRALRVDNAASEKNKEELKSLGPAAPIIDSPYGDPIDPEDAPESITRAVASLPPEQMFELMKQMKLCVQNSHQEARNMLLQNPQLAYALLQAQVVMRIMDPEIALKILHRKIHVTPLIPGKSQSVSVSGPGPGPGPGLCPGPNVLLNQQNPPAPQPQHLARRPVKDIPPLMQTPIQGGIPAPGPIPAAVPGAGPGSLTPGGAMQPQLGMPGVGPVPLERGQVQMSDPRAPIPRGPVTPGGLPPRGLLGDAPNDPRGGTLLSVTGEVEPRGYLGPPHQGPPMHHASGHDTRGPSSHEMRGGPLGDPRLLIGEPRGPMIDQRGLPMDGRGGRDSRAMETRAMETEVLETRVMERRGMETCAMETRGMEARGMDARGLEMRGPVPSSRGPMTGGIQGPGPINIGAGGPPQGPRQVPGISGVGNPGAGMQGTGIQGTGMQGAGIQGGGMQGAGIQGVSIQGGGIQGGGIQGASKQGGSQPSSFSPGQSQVTPQDQEKAALIMQVLQLTADQIAMLPPEQRQSILILKEQIQKSTGAS
  binding: binds
